# Results published in article PMC12006758 (Frontiers in Chemistry, 2025).
# Tested on: PC3 cancer cell line
# Test: MTT cell viability assay, PC3
# Type: cell-based
# Conditions: Homo sapiens, read-out: IC50 PC3
# Protocol: All cell lines were obtained from the Vacsera Cell Culture Library, Tissue Culture Unit, Cairo, Egypt, with ATCC certification. For further details, See Supplementary Appendix A in the supplementary data.
# All cell lines were obtained from the Vacsera Cell Culture Library, Tissue Culture Unit, Cairo, Egypt, with ATCC certification.
# Cells were cultured in DMEM (Invitrogen/Life Technologies) supplemented with 10% FBS (Hyclone), […] (Sigma), and 1% penicillin-streptomycin. Cells were seeded at a density of 1.2–1.8 × 10,000 cells per well in 96-well plates with 100 µL of complete growth medium […]. After 24 hours of incubation, 100 µL of serially diluted sterile test compounds were added to achieve final concentrations ranging from 0.01 to 100 µM, with growth media serving as the negative control. Following another 24-hour incubation, supernatants were removed, and cells were prepared for MTT testing.
# Each experiment included a blank control with complete media but no cells. […] Reconstituted MTT was added to the culture medium at 10% of its volume, and cultures were incubated for 2 to 4 hours, depending on cell type and density.
# Absorbance was measured spectrophotometrically at 570 nm, with background absorbance at 690 nm subtracted. Data from all experiments were recorded, and cell viability percentages were calculated.
smiles,measurement,value
CN[C@@H]1C[C@H]2O[C@@](C)([C@@H]1OC)n1c3ccccc3c3c4c(c5c6ccccc6n2c5c31)C(=O)NC4 [Staurosporine],IC50,1.2 µg/mL
